For 1 molecule, ERG-mediated invasion results are on record in patent US9580430B2, “9H-pyrimido[4,5-B]indoles and related analogs as BET bromodomain inhibitors” (THE REGENTS OF THE UNIVERSITY OF MICHIGAN, priority 2014, dated 2017).

In this data set the test system is RWPE and PC3 cells overexpressing ERG. As to the kind of experiment: Matrigel invasion assay, RWPE and PC3 cells overexpressing ERG. The class given is cell-based. To be noted: 500 nM. The method, then: Medium containing 10% FBS in the lower chamber served as chemoattractant. After 48 h, the non-invading cells and EC matrix were gently removed with a cotton swab and invasive cells located on the lower side of the chamber were stained with crystal violet, air dried and photographed. For colorimetric assays, the inserts were treated with 150 μl of 10% acetic acid and the absorbance measured at 560 nm using a spectrophotometer (GE Healthcare).

The structures appear in SMILES notation.

As to `CCNC(=O)C[C@@H]1N=C(c2ccc(Cl)cc2)c2cc(OC)ccc2-n2c(C)nnc21` [I-BET762], the ERG-mediated invasion entry is reported as “attenuation of ERG-mediated invasion”.
